Measurements reported in patent US20240374644A1.
No constants are given. Whether binding was seen depends on the method and setting. Some entries that bind do so weakly or less than the wild type.

Molecular target: T1, ERVK6 HERV-K Env surface protein (human) (UniProt Q69384)
T1 sequence (looked up): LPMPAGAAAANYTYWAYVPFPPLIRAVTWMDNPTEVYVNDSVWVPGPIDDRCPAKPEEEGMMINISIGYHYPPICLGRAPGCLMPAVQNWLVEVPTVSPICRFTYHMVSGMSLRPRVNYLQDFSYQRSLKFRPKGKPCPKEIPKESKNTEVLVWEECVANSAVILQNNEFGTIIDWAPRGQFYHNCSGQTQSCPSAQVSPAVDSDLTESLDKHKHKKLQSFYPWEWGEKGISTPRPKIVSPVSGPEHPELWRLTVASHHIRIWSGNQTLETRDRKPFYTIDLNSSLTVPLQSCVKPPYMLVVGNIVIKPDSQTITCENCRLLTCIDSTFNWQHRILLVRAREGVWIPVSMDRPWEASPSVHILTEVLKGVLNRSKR
Experiment: immunoblot

binding: binds
B1: m6H5 murine anti-HERV-K monoclonal antibody (antibody, V domains shown)
VH: QVKLQQSGPDLVKPGASVKISCKASGYSFTGYYMHWVKQSHGKSLEWIGRVNPNSGGTSYNQKFKDKAILTVDKSSSTAYMELRSLTSEDSAVYYCARSKGNYFYAMDYWGQGTTVTVSS
VL: DIELTQSPASLAVSLGQRATISCRASESVDSHGTSFMHWYQQKPGQPPKFLIYRASNLESGIPARFSGSGSRTDFTLTINPVETDDVAIYYCQQSNEDPPTFGGGTKLEIK
